Patent US20250296954 (published 2025)

Assay: Fmoc solid-phase peptide synthesis in flow; pentafluorophenyl ester (Fmoc-AA-OPfp)
Conditions: coupling step

Substance: Fmoc-L-Ala-L-Ala-L-Ala-L-Ala-OtBu
- step yield: 92%
